Measurements published in the supplement of paper PMC12823440, “Inhibitors supercharge kinase turnover through native proteolytic circuits” (Nature, 2025).
Where a name gives a salt, the structure may show the parent alone. The list shows a part of the results. Hit calls seldom repeat between salt and free forms of one compound.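 Kinases, fused to nanoluciferase, were expressed in K562 cells; luminescence was measured every 4 h from 2 to 18 h as percent of control (DMSO = 100%, positive control = 0%). A time point is decreased if signal falls significantly (2 sigma). Hits were called by the authors by a rule that is not shown; the count of time points alone does not decide it.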

Sequences of proteins named here, by UniProt entry; tags and fusion partners are left off. A change or cut given only in a name is not applied to a line headed by its entry.
UniProt P50613: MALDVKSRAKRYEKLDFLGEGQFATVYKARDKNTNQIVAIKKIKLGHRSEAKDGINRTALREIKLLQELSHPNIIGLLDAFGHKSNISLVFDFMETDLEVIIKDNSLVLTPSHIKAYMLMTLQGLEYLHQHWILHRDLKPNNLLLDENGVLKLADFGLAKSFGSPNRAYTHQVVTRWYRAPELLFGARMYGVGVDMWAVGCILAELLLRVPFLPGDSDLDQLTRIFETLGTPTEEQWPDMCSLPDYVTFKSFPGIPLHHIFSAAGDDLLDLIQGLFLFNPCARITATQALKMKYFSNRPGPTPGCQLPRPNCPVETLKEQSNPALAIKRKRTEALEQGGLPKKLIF
UniProt O96017, whole entry: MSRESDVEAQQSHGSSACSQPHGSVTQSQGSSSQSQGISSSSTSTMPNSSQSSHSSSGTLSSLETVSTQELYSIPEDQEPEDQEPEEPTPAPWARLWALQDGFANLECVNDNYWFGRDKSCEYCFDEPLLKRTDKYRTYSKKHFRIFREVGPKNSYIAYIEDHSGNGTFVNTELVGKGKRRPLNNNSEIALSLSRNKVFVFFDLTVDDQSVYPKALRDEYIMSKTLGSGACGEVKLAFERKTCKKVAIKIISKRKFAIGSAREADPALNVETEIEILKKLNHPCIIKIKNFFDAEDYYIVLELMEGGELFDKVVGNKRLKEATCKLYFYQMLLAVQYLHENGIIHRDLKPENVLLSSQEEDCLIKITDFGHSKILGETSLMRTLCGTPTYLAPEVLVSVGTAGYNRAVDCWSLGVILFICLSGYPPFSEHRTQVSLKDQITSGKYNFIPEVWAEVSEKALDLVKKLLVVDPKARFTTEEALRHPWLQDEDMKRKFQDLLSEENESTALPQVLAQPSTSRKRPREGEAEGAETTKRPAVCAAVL
UniProt P07333, whole entry: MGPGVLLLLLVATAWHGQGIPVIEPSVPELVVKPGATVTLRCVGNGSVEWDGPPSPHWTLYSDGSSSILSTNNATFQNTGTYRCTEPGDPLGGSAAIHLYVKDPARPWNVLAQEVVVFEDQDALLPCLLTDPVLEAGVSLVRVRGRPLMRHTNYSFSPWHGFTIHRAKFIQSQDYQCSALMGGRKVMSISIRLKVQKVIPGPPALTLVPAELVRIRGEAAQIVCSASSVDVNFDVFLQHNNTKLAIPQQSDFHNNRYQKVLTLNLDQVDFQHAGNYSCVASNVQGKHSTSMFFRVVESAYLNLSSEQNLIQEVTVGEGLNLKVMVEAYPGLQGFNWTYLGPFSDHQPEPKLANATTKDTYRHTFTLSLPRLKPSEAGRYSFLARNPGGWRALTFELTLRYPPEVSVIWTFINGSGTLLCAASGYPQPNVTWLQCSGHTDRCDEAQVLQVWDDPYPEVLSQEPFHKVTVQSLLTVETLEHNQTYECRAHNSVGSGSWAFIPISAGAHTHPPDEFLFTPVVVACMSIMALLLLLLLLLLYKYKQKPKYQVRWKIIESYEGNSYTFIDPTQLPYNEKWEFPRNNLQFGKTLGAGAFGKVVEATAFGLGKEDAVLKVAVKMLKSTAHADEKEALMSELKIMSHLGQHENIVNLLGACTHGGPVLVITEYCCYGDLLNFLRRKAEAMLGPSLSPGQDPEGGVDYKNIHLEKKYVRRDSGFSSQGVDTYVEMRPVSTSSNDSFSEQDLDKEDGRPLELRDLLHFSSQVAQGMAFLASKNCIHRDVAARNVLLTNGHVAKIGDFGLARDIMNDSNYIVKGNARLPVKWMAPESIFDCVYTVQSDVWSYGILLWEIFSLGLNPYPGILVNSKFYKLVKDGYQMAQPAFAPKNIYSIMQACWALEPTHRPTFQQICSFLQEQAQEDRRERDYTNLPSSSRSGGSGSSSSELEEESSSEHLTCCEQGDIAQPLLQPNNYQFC
UniProt P41240: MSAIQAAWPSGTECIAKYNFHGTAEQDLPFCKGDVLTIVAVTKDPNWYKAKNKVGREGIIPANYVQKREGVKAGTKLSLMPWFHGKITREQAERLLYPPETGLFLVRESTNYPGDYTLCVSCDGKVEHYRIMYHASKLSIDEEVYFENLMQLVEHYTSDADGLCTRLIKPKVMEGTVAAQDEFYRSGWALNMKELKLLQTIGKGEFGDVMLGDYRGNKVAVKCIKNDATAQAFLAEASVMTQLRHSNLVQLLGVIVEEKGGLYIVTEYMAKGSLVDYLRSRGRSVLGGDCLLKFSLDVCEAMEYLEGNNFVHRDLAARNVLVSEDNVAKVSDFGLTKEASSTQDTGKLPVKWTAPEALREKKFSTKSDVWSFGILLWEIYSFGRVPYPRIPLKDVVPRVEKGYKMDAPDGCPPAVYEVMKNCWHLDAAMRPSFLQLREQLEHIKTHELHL
UniProt P48730: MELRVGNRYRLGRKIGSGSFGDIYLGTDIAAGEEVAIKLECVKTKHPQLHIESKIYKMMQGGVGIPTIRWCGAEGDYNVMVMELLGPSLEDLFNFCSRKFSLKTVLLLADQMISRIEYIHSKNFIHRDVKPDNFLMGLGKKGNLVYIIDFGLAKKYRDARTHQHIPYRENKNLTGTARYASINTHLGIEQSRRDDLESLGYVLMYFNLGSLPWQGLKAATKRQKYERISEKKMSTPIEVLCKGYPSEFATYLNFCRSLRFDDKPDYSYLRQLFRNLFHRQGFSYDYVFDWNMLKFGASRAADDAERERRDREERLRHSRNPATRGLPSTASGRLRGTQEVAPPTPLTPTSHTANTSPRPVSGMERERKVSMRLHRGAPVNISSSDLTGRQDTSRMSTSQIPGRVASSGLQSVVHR
UniProt Q9Y463, whole entry, looked up: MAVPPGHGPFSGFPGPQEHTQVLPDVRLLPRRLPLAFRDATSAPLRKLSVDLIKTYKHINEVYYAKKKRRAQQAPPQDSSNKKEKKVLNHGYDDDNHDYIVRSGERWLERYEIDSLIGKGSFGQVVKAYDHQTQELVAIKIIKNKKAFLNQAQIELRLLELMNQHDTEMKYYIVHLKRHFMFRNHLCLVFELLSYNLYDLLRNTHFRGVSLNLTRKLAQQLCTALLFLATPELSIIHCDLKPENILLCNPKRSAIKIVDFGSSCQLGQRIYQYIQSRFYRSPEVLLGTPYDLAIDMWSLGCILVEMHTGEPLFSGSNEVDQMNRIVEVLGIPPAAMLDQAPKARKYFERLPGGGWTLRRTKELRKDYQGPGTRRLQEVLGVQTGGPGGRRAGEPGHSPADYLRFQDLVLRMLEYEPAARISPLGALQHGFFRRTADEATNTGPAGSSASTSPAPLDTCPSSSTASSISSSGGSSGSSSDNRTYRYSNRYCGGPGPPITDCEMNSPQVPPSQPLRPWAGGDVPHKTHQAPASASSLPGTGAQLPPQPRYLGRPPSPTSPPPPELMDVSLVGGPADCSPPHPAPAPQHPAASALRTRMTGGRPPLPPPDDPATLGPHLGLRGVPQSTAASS
UniProt Q92630: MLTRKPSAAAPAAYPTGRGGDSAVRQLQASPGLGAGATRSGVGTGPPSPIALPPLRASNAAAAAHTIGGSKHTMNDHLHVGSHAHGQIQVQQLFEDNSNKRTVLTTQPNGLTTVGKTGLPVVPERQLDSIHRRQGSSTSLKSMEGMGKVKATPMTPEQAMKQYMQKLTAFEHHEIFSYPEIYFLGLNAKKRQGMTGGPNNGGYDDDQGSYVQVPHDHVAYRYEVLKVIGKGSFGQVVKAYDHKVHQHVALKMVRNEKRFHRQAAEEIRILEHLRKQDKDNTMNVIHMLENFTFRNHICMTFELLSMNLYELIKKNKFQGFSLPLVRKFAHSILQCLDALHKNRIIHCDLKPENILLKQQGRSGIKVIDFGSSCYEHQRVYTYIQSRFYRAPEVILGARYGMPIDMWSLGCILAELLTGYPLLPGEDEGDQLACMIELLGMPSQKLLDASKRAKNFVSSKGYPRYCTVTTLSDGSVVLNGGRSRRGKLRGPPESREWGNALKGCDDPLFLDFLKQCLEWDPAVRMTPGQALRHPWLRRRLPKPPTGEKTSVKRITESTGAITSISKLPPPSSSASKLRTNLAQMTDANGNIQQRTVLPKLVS
UniProt P29317, whole entry: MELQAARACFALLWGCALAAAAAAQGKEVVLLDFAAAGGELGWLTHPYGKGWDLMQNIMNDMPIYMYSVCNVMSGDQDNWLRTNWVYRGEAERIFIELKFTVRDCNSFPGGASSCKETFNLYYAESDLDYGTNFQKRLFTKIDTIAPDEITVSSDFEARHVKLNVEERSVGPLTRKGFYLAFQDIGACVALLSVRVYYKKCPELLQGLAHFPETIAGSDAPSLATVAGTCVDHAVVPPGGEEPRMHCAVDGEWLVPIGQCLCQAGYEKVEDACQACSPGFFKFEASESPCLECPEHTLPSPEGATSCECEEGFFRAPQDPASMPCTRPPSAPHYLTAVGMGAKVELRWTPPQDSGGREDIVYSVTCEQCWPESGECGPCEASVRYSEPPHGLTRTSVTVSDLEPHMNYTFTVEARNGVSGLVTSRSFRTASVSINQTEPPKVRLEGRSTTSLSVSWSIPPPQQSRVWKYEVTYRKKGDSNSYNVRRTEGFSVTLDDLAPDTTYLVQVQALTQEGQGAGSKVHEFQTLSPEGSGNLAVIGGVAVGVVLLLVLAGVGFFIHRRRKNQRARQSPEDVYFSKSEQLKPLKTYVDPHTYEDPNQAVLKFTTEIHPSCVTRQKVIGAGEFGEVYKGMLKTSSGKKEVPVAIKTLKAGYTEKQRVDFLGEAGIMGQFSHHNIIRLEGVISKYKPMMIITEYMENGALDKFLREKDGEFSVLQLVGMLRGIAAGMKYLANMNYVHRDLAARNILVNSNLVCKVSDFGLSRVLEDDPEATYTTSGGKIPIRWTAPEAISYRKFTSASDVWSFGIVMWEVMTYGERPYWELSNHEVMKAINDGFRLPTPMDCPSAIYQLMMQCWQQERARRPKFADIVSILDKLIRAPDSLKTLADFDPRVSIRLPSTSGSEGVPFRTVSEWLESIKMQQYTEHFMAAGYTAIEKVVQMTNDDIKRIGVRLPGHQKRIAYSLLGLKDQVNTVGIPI
UniProt P21860, whole entry: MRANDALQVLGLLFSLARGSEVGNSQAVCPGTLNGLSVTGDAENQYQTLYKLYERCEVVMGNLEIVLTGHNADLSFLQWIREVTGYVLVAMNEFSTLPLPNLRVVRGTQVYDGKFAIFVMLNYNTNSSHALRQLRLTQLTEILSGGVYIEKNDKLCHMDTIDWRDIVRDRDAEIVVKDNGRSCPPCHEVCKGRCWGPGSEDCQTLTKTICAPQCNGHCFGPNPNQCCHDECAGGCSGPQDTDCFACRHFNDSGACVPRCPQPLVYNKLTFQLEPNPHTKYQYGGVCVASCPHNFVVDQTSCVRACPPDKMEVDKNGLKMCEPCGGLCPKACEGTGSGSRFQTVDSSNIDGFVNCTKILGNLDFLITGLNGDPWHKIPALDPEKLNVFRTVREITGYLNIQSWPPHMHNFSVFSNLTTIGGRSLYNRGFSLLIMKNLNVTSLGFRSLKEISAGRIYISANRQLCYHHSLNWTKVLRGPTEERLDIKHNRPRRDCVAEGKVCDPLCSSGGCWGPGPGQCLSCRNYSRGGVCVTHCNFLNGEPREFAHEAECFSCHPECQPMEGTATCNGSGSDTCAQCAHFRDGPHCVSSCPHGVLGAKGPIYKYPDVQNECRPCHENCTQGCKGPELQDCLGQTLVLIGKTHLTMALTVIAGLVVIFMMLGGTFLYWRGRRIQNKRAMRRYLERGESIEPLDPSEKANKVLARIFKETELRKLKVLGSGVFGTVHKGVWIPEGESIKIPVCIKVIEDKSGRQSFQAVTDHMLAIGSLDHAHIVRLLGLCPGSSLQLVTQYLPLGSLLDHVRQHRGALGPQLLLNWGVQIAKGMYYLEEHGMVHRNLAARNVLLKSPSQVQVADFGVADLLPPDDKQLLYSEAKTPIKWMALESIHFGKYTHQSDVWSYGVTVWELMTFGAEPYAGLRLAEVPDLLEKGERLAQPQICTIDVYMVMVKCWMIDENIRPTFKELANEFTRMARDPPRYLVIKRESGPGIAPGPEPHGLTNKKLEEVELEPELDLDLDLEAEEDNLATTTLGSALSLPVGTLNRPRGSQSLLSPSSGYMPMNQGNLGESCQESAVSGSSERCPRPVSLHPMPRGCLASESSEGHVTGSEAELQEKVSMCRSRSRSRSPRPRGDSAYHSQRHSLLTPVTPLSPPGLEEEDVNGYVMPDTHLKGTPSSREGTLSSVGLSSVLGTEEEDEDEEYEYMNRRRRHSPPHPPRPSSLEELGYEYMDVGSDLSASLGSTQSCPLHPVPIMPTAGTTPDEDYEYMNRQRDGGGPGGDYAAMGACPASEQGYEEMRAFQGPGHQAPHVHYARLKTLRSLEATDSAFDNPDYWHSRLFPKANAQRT

How the values were obtained:
Experiment in all cases: kinase-Nluc reporter destabilization hit call (1 = scored as downregulated) (binary); higher = compound decreases kinase abundance
Conditions in all cases: K562; 2-18 h
CDK7 = CDK7 (UniProt P50613)
CDK9 = CDK9 (UniProt P50750)
CHEK2 = CHEK2 (UniProt O96017)
CSF1R = CSF1R (UniProt P07333)
CSK = CSK (UniProt P41240)
CSNK1A1 = CSNK1A1 (UniProt P48729)
CSNK1D = CSNK1D (UniProt P48730)
DDR1 = DDR1 (UniProt Q08345)
DYRK1B = DYRK1B (UniProt Q9Y463)
DYRK2 = DYRK2 (UniProt Q92630)
EGFR = EGFR (UniProt P00533)
EGFR_G719S = EGFR_G719S (UniProt P00533)
EGFR_G719S_T790M = EGFR_G719S_T790M (UniProt P00533)
EGFR_L718V = EGFR_L718V (UniProt P00533)
EGFR_L858R = EGFR_L858R (UniProt P00533)
EGFR_L861Q = EGFR_L861Q (UniProt P00533)
EGFR_T790M = EGFR_T790M (UniProt P00533)
EPHA2 = EPHA2 (UniProt P29317)
ERBB3 = ERBB3 (UniProt P21860)
[1] = molecular target: ERBB4_R711C (clone: ERBB4_mut) (UniProt Q15303)

Measured: kinase-Nluc reporter destabilization hit call

Cc1ccc(CNc2ncnc3ccc(-c4ccc(CO)o4)cc23)o1 (10 µM)
inactive: CDK7 = 0 | CDK9 = 0 | CHEK2 = 0 | CSF1R 0 | CSK 0 | CSNK1A1 = 0 | CSNK1D 0 | DDR1 = 0 | DYRK1B 0 | DYRK2 = 0 | EGFR 0 | EGFR_G719S 0 | EGFR_G719S_T790M 0 | EGFR_L718V 0 | EGFR_L858R 0 | EGFR_L861Q 0 | EGFR_T790M 0 | EPHA2 = 0 | ERBB3 = 0 | [1] 0

Cc1[nH]c(/C=C2\C(=O)Nc3ccccc32)c(C)c1CCC(=O)O [Orantinib] (10 µM)
inactive: CDK7 = 0 | CDK9 = 0 | CHEK2 = 0 | CSF1R 0 | CSK 0 | CSNK1A1 = 0 | DDR1 = 0 | DYRK1B 0 | DYRK2 = 0 | EPHA2 = 0 | ERBB3 = 0 | [1] 0

COc1cc(Nc2ncc(F)c(Nc3ccc4c(n3)NC(=O)C(C)(C)O4)n2)cc(OC)c1OC (10 µM)
inactive: CDK7 = 0 | CDK9 = 0 | CHEK2 = 0 | CSF1R 0 | CSK 0 | CSNK1A1 = 0 | CSNK1D 0 | DDR1 = 0 | DYRK1B 0 | DYRK2 = 0 | EPHA2 = 0 | ERBB3 = 0 | [1] 0

CNc1nc(Nc2ccc(C(=O)N3CCOCC3)cc2OC)nc2[nH]cc(Cl)c12 (2.5 µM)
inactive: CDK7 = 0 | CDK9 = 0 | CHEK2 = 0 | CSF1R 0 | CSK 0 | CSNK1A1 = 0 | CSNK1D 0 | DDR1 = 0 | DYRK1B 0 | DYRK2 = 0 | EGFR 0 | EGFR_G719S 0 | EGFR_G719S_T790M 0 | EGFR_L718V 0 | EGFR_L858R 0 | EGFR_L861Q 0 | EGFR_T790M 0 | EPHA2 = 0 | ERBB3 = 0 | [1] 0

CC#CC(=O)Nc1ccc2ncnc(Nc3cccc(Br)c3)c2c1 (10 µM)
inactive: CDK7 = 0 | CDK9 = 0 | CHEK2 = 0 | CSF1R 0 | CSK 0 | CSNK1A1 = 0 | CSNK1D 0 | DDR1 = 0 | DYRK1B 0 | DYRK2 = 0 | EPHA2 = 0 | ERBB3 = 0 | [1] 0

Cc1cc(=O)oc2c(C=O)c(O)ccc12 (10 µM)
inactive: CDK7 = 0 | CDK9 = 0 | CHEK2 = 0 | CSF1R 0 | CSK 0 | CSNK1A1 = 0 | CSNK1D 0 | DDR1 = 0 | DYRK1B 0 | DYRK2 = 0 | EGFR 0 | EGFR_G719S 0 | EGFR_G719S_T790M 0 | EGFR_L718V 0 | EGFR_L858R 0 | EGFR_L861Q 0 | EGFR_T790M 0 | EPHA2 = 0 | ERBB3 = 0 | [1] 0

CNC(=O)c1cc(COc2nnc(Nc3ccc(Cl)cc3)c3ccoc23)ccn1 [Telatinib] (10 µM)
inactive: CDK7 = 0 | CDK9 = 0 | CHEK2 = 0 | CSF1R 0 | CSK 0 | CSNK1A1 = 0 | CSNK1D 0 | DDR1 = 0 | DYRK1B 0 | DYRK2 = 0 | EGFR 0 | EGFR_G719S 0 | EGFR_G719S_T790M 0 | EGFR_L718V 0 | EGFR_L858R 0 | EGFR_L861Q 0 | EGFR_T790M 0 | EPHA2 = 0 | ERBB3 = 0 | [1] 0

C[C@@H](c1ccc(F)cc1)n1nnc2cnc3ccc(-c4ccc5ocnc5c4)cc3c21 (10 µM)
inactive: CDK7 = 0 | CDK9 = 0 | CHEK2 = 0 | CSF1R 0 | CSK 0 | CSNK1A1 = 0 | CSNK1D 0 | DDR1 = 0 | DYRK1B 0 | DYRK2 = 0 | EGFR 0 | EGFR_G719S 0 | EGFR_G719S_T790M 0 | EGFR_L718V 0 | EGFR_L858R 0 | EGFR_L861Q 0 | EGFR_T790M 0 | EPHA2 = 0 | ERBB3 = 0 | [1] 0

CC1=C(C(=O)O)N2C(=O)[C@@H](NC(=O)[C@H](N)C3=CCC=CC3)[C@H]2SC1 [Cephradine] (10 µM)
inactive: CDK7 = 0 | CDK9 = 0 | CHEK2 = 0 | CSF1R 0 | CSK 0 | CSNK1A1 = 0 | CSNK1D 0 | DDR1 = 0 | DYRK1B 0 | DYRK2 = 0 | EGFR 0 | EGFR_G719S 0 | EGFR_G719S_T790M 0 | EGFR_L718V 0 | EGFR_L858R 0 | EGFR_L861Q 0 | EGFR_T790M 0 | EPHA2 = 0 | ERBB3 = 0 | [1] 0

c1cc(-c2c[nH]c3nccc(N4CCC[C@@]5(CCCCN5)C4)c23)ncn1 (10 µM)
inactive: CDK7 = 0 | CDK9 = 0 | CHEK2 = 0 | CSF1R 0 | CSK 0 | CSNK1A1 = 0 | CSNK1D 0 | DDR1 = 0 | DYRK1B 0 | DYRK2 = 0 | EGFR 0 | EGFR_G719S 0 | EGFR_G719S_T790M 0 | EGFR_L718V 0 | EGFR_L858R 0 | EGFR_L861Q 0 | EGFR_T790M 0 | EPHA2 = 0 | ERBB3 = 0 | [1] 0

C=CC(=O)Nc1cccc(Nc2nc(Nc3ccc(N4CCN(C(C)=O)CC4)cc3OC)ncc2C(F)(F)F)c1 [Rociletinib] (10 µM)
inactive: CDK7 = 0 | CDK9 = 0 | CHEK2 = 0 | CSF1R 0 | CSK 0 | CSNK1A1 = 0 | CSNK1D 0 | DDR1 = 0 | DYRK1B 0 | DYRK2 = 0 | EGFR 0 | EGFR_G719S 0 | EGFR_G719S_T790M 0 | EGFR_L718V 0 | EGFR_L858R 0 | EGFR_L861Q 0 | EPHA2 = 0 | ERBB3 = 0 | [1] 0

COc1ccc2c(OCc3nnc4ccc(-c5ccccc5)nn34)ccnc2c1 (2 µM)
inactive: CDK7 = 0 | CDK9 = 0 | CHEK2 = 0 | CSF1R 0 | CSK 0 | CSNK1A1 = 0 | CSNK1D 0 | DDR1 = 0 | DYRK1B 0 | DYRK2 = 0 | EGFR 0 | EGFR_G719S 0 | EGFR_G719S_T790M 0 | EGFR_L718V 0 | EGFR_L858R 0 | EGFR_L861Q 0 | EGFR_T790M 0 | EPHA2 = 0 | ERBB3 = 0 | [1] 0

C=CC(=O)Nc1cccc(Nc2nc(Nc3ccc(N4CCN(C(C)=O)CC4)cc3OC)ncc2C(F)(F)F)c1 [Rociletinib hydrobromide] (10 µM)
inactive: CDK7 = 0 | CDK9 = 0 | CHEK2 = 0 | CSF1R 0 | CSK 0 | CSNK1A1 = 0 | CSNK1D 0 | DDR1 = 0 | DYRK1B 0 | DYRK2 = 0 | EGFR 0 | EGFR_G719S 0 | EGFR_G719S_T790M 0 | EGFR_L718V 0 | EGFR_L858R 0 | EGFR_L861Q 0 | EGFR_T790M 0 | EPHA2 = 0 | ERBB3 = 0 | [1] 0

O=C1NC(=O)/C(=C\c2cccc(C(F)(F)F)c2)S1 (2.5 µM)
inactive: CDK7 = 0 | CDK9 = 0 | CHEK2 = 0 | CSF1R 0 | CSK 0 | CSNK1A1 = 0 | CSNK1D 0 | DDR1 = 0 | DYRK1B 0 | DYRK2 = 0 | EGFR 0 | EGFR_G719S 0 | EGFR_G719S_T790M 0 | EGFR_L718V 0 | EGFR_L858R 0 | EGFR_L861Q 0 | EGFR_T790M 0 | EPHA2 = 0 | ERBB3 = 0 | [1] 0

C[C@@H](c1ccc(-c2ccccc2)c(F)c1)c1cc(NC(=N)N2CCOCC2)on1 [Rimacalib] (10 µM)
inactive: CDK7 = 0 | CDK9 = 0 | CHEK2 = 0 | CSF1R 0 | CSK 0 | CSNK1A1 = 0 | CSNK1D 0 | DDR1 = 0 | DYRK1B 0 | DYRK2 = 0 | EGFR 0 | EGFR_G719S 0 | EGFR_G719S_T790M 0 | EGFR_L718V 0 | EGFR_L858R 0 | EGFR_L861Q 0 | EGFR_T790M 0 | EPHA2 = 0 | ERBB3 = 0 | [1] 0

CC(C)(O)CNc1ncc(-c2ccnc(Nc3ccnc(Cl)c3)n2)c(CC2CC2)n1 (2.5 µM)
inactive: CDK7 = 0 | CDK9 = 0 | CHEK2 = 0 | CSF1R 0 | CSK 0 | CSNK1A1 = 0 | CSNK1D 0 | DDR1 = 0 | DYRK1B 0 | DYRK2 = 0 | EGFR 0 | EGFR_G719S 0 | EGFR_G719S_T790M 0 | EGFR_L718V 0 | EGFR_L858R 0 | EGFR_L861Q 0 | EGFR_T790M 0 | EPHA2 = 0 | ERBB3 = 0 | [1] 0

O=S(=O)(NCCCN1c2ccccc2CCc2ccc(Cl)cc21)c1ccc(OC(F)(F)F)cc1 (2.5 µM)
inactive: CDK7 = 0 | CDK9 = 0 | CHEK2 = 0 | CSF1R 0 | CSK 0 | CSNK1A1 = 0 | CSNK1D 0 | DDR1 = 0 | DYRK1B 0 | DYRK2 = 0 | EGFR 0 | EGFR_G719S 0 | EGFR_G719S_T790M 0 | EGFR_L718V 0 | EGFR_L858R 0 | EGFR_L861Q 0 | EGFR_T790M 0 | EPHA2 = 0 | ERBB3 = 0 | [1] 0

Quoted from the results shown (five entries):
C=CC(=O)Nc1cccc(Nc2nc(Nc3ccc(N4CCN(C(C)=O)CC4)cc3OC)ncc2C(F)(F)F)c1 [Rociletinib hydrobromide] (10 µM)
inactive: CDK7 = 0 | CDK9 = 0 | CHEK2 = 0 | CSF1R 0 | CSK 0 | CSNK1A1 = 0 | CSNK1D 0 | DDR1 = 0 | DYRK1B 0 | DYRK2 = 0 | EGFR 0 | EGFR_G719S 0 | EGFR_G719S_T790M 0 | EGFR_L718V 0 | EGFR_L858R 0 | EGFR_L861Q 0 | EGFR_T790M 0 | EPHA2 = 0 | ERBB3 = 0 | [1] 0

O=C1NC(=O)/C(=C\c2cccc(C(F)(F)F)c2)S1 (2.5 µM)
inactive: CDK7 = 0 | CDK9 = 0 | CHEK2 = 0 | CSF1R 0 | CSK 0 | CSNK1A1 = 0 | CSNK1D 0 | DDR1 = 0 | DYRK1B 0 | DYRK2 = 0 | EGFR 0 | EGFR_G719S 0 | EGFR_G719S_T790M 0 | EGFR_L718V 0 | EGFR_L858R 0 | EGFR_L861Q 0 | EGFR_T790M 0 | EPHA2 = 0 | ERBB3 = 0 | [1] 0

C[C@@H](c1ccc(-c2ccccc2)c(F)c1)c1cc(NC(=N)N2CCOCC2)on1 [Rimacalib] (10 µM)
inactive: CDK7 = 0 | CDK9 = 0 | CHEK2 = 0 | CSF1R 0 | CSK 0 | CSNK1A1 = 0 | CSNK1D 0 | DDR1 = 0 | DYRK1B 0 | DYRK2 = 0 | EGFR 0 | EGFR_G719S 0 | EGFR_G719S_T790M 0 | EGFR_L718V 0 | EGFR_L858R 0 | EGFR_L861Q 0 | EGFR_T790M 0 | EPHA2 = 0 | ERBB3 = 0 | [1] 0

CC(C)(O)CNc1ncc(-c2ccnc(Nc3ccnc(Cl)c3)n2)c(CC2CC2)n1 (2.5 µM)
inactive: CDK7 = 0 | CDK9 = 0 | CHEK2 = 0 | CSF1R 0 | CSK 0 | CSNK1A1 = 0 | CSNK1D 0 | DDR1 = 0 | DYRK1B 0 | DYRK2 = 0 | EGFR 0 | EGFR_G719S 0 | EGFR_G719S_T790M 0 | EGFR_L718V 0 | EGFR_L858R 0 | EGFR_L861Q 0 | EGFR_T790M 0 | EPHA2 = 0 | ERBB3 = 0 | [1] 0

O=S(=O)(NCCCN1c2ccccc2CCc2ccc(Cl)cc21)c1ccc(OC(F)(F)F)cc1 (2.5 µM)
inactive: CDK7 = 0 | CDK9 = 0 | CHEK2 = 0 | CSF1R 0 | CSK 0 | CSNK1A1 = 0 | CSNK1D 0 | DDR1 = 0 | DYRK1B 0 | DYRK2 = 0 | EGFR 0 | EGFR_G719S 0 | EGFR_G719S_T790M 0 | EGFR_L718V 0 | EGFR_L858R 0 | EGFR_L861Q 0 | EGFR_T790M 0 | EPHA2 = 0 | ERBB3 = 0 | [1] 0

(continued)

CCN1CCN(Cc2ccc(Nc3ncc(F)c(-c4cc(F)c5nc(C)n(C(C)C)c5c4)n3)nc2)CC1 [Abemaciclib (methanesulfonate)] (10 µM)
inactive: CDK7 = 0 | CDK9 = 0 | CHEK2 = 0 | CSF1R 0 | CSK 0 | CSNK1A1 = 0 | CSNK1D 0 | DDR1 = 0 | DYRK1B 0 | DYRK2 = 0 | EGFR 0 | EGFR_G719S 0 | EGFR_G719S_T790M 0 | EGFR_L718V 0 | EGFR_L858R 0 | EGFR_L861Q 0 | EGFR_T790M 0 | EPHA2 = 0 | ERBB3 = 0 | [1] 0
